# The other results are listed elsewhere or left out.
# Columns and labels:
# Assay in all cases: glycan array binding signal (z-score within array); higher = stronger binding
# Conditions in all cases: glycan notation: IUPAC condensed, linker removed
# [1] = molecular target: Neu5Gc(a2-8)Neu5Gc(a2-3)Gal(b1-4)GlcNAc(b1-3)Gal(b1-4)GlcNAc
# Method in brief: (§1)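 The Consortium for Functional Glycomics database supplied 3228 glycan arrays, of which those lacking an available protein sequence were dropped. The binding signal, a within-array Z-score, was averaged across arrays of the same protein sequence and across linkers. Negative scores can be read as non-binding.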
# [2] = molecular target: Neu5Gc(a2-8)Neu5Gc(a2-6)Gal(b1-4)GlcNAc
# Method in brief: as §1
# [3] = molecular target: Neu5Gc(b2-6)Gal(b1-4)GlcNAc
# Method in brief: as §1
binder,measurement,setting,value
Epa20 (Candida glabrata) (protein) MGSSHHHHHHSSGLVPRGSHMASSNIPNNYPLGCSNKYSGHLPGLKMELYSYNYVNPRHPDPQNPGKLDQLYDPNLLGTYECFDSSYKDINYPRVGYKSKTLIGRSDGVSGILNFNFVPPWGCMPQKGQLPPAYNFKSNITLSNFTMILFGYFKPKISGNHIFSLHGDDLIYLNFGAGNAFDCCRQESSADNFGNYQAFSLWGINWEKKTLTVYLDMNTYYPIRIFYNNRDYQAIFNFSFKTEFDSSPVIDFQDYFFFLRDIDGGCPGEV,glycan array binding signal (z-score),[1],-0.667
same,glycan array binding signal (z-score),[2],-0.457
same,glycan array binding signal (z-score),[3],0.361

# Source: the supplement of paper PMC8728848
